Data as given in patent US20230141981A1, “NOVEL COMPOUNDS AND COMPOSITION FOR TARGETED THERAPY OF KIDNEY-ASSOCIATED CANCERS” (SHANGHAI MICURX PHARMACEUTICALS CO., LTD, priority 2020, published 2023).
“Also recorded” adds a separate entry of the source.

Key:
[1] = Mouse PK: axitinib concentration in blood plasma and kidney tissue post-administration; assay type: in vivo; settings: oral gavage, single dose 10 mg/kg
Excerpt: Preferential accumulation of compounds provided herein in kidneys (or near the site of a kidney cancer) may be evaluated by pharmacokinetic (PK) tests, such as in a standard rat PK test. PK data are generally used to establish the key parameters predictive of the therapy outcome, such as drug concentration (C) at given time points, drug concentration at the target tissue(s) (CTarget), area under the curve (AUC) for a plot monitoring the change in the systemic drug concentration over time, and other parameters. Thus, drug concentration in organ (or body compartment) affected by cancer is important for effective action of anticancer agents (as described, for example, by Zhang et al. in Drug Metabolism and Disposition. 2019, vol. 47, p. 1122).
Representative compounds provided herein have been tested in a rodent PK model of intravenous administration performed analogously to methods described in the monograph Current Protocols in Pharmacology, 2005, 7.1.1-7.1.26, John Wiley & Sons, Inc.
In PK studies, the levels (concentration) of a therapeutic drug is determined in key body compartments, such as blood and select organ tissues, is determined over a given time course. The levels of an active compound in the organ affected by a disease is of particular importance, since such a compound is intended to target the disease therein. For therapy of renal cancers, the targeted organ is kidney.
Additional PK data in rodents for other compounds provided herein are illustrated in the Table 2 below. The data indicated a targeted delivery of anticancer drug axitinib, preferentially released from these compounds into kidneys.

786-O = test: In vitro inhibition of cancer cells, CTG assay, 72 h; assay type: cell-based; settings: Homo sapiens, 786-0, 72 h incubation
Excerpt: (§1) In vitro activity of compounds provided herein may be assessed by standard testing procedures using various cancer cell lines (alongside normal cell comparators), such as described, for example, in ACS Pharmacol. Transl. Sci. 2019, vol. 2, p. 18; J. Med. Chem. 2018, vol. 61, p. 5304; and methods in references cited therein.
(§2) The anticancer activity in vitro (potency) of exemplary compounds provided herein are illustrated by the data in Table 3. Therein, Caki-1 is a human clear cell renal cell carcinoma (ccRCC) line. The ACTHN cell line was derived from the pleural effusion of a patient with metastatic renal carcinoma. The 786-O cell line is a hypertriploid renal cancer cell carcinoma cell line. Generally, cells were plated into […] microplates and pre-incubated for 24 h. Subsequently, the test compound solutions were added, and cells growth inhibition analyzed with 9-point data plot. After 72 h of the incubation, the number and proportion of the viable cells was determined by CTG assay, and IC50 values calculated.

Caki-1 = test: as above; assay type: cell-based; settings: Homo sapiens, Caki-1, 72 h incubation
Excerpt: as §1, §2

HK-2 = test: In vitro inhibition of non-cancer kidney cells; assay type: cell-based; settings: Homo sapiens
Method: as §2

CNC(=O)c1ccccc1Sc1ccc2c(/C=C/c3ccccn3)n[nH]c2c1 [Axitinib, N-methyl-2-[[3-[(E)-2-pyridin-2-ylethenyl]-1H-indazol-6-yl]sulfanyl]benzamide]
Kidney Tissue Conc. (axitinib) ([1]; T = 4 h): T = 4 h: BLQ^c
Kidney Tissue Conc. (axitinib) ([1]; T = 4 h, listed as axitinib): BLQ
Kidney Tissue Conc. (axitinib) ([1]; T = 6 h): T = 6 h: BLQ; also recorded: BLQ^b
IC50 (786-O): 28.9 µM
IC50 (Caki-1): 28.7 µM
IC50 (HK-2): 22.9 µM
